Several values for one entry are separate records, joined by “and”; a condition that tells them apart may be missing. Equal entries are not always repeated. The campaign covered roughly 580,000 compounds. About 6,100 (1.1%) were called active. The shares of active, inactive and inconclusive entries below differ from those in the screen. Calls come from the whole dose curve; as a rule, active = well fitted inhibition curve with a large enough effect; inconclusive = small, poorly fitted or top-dose-only effect, or another doubt; inactive = no such curve, though single readings can be large or run the other way. Potencies beside an inconclusive call are fits to weak or partial responses and may not hold up.
Molecular target: Polyunsaturated fatty acid lipoxygenase ALOX12 (Homo sapiens) (UniProt P18054)
Assay: Primary qHTS assay for inhibitors of human arachidonate 12S-lipoxygenase (ALOX12): Round 2
Details: purified 12hLO, xylenol orange hydroperoxide absorbance; activity change, negative = inhibition: at 108 µM (top of the series) unless noted
Procedure, shortened: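 Hydroperoxide product was detected by ferrous iron/xylenol orange as the 573 to 405 nm absorbance ratio. Arachidonic acid at 40 uM (final) was turned over for 30 min at room temperature by 150 nM human 12hLO, pH 7.0 Hepes buffer, after 15 min compound preincubation.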
% is set by controls: 0 for no effect and ±100 for the full control effect; potency is the fitted concentration of half-maximal effect.

Protein sequences, listed by entry. Tags and fused reporters are not part of them. Lines headed by an entry give the natural chain unless they say otherwise; changes in a name come on top.
UniProt P18054: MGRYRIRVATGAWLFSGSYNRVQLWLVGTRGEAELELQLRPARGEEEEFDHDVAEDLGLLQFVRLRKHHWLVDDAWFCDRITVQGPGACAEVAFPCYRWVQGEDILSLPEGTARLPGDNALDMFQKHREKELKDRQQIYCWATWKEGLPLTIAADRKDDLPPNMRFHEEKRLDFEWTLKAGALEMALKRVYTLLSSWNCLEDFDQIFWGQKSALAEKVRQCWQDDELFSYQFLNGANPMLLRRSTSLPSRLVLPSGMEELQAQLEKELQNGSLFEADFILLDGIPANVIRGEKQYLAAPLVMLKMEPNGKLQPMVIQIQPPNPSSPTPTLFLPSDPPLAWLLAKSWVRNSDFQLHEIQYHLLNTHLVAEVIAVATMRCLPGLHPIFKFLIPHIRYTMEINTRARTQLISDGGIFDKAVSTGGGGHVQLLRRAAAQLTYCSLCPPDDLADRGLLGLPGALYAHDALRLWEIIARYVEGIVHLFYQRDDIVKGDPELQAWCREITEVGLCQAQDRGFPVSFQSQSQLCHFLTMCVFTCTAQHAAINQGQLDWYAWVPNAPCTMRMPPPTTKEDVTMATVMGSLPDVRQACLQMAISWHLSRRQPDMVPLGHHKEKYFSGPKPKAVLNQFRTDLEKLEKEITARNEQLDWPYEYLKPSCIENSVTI

Compound	activity change, negative = inhibition	Potency
COCCNC(=O)c1cc2sc3ccccc3c2s1	inactive: 7.31%	–
CCc1c(C)sc(NC(=O)C2CCCC2)c1C#N	–	inconclusive: 25.1 µM [inhibitor, partial curve, poor fit]
Cc1cc(N=Cc2cc(Br)ccc2O)no1	–	inconclusive: 70.8 µM [inhibitor, partial curve, poor fit]
S=C(NCC1CCCO1)Nc1cccc(Cl)c1 (centres undefined)	inactive: -12.6%	–
CCOC(=O)c1ccc(NC(=O)CCS(=O)(=O)c2ccc3c(c2)CC(C)N3C(=O)CC)cc1 (centres undefined)	inactive: -1.33%	–
CCCn1c(=N)c(C(=O)NC2CCCC2)cc2c(=O)n3cccc(C)c3nc21	–	inconclusive: 0.562 µM [inhibitor, full curve, poor fit]
CC[C@H](C)[C@H]1CNC(=O)C(=O)N1CC1CCN(CCCc2ccc(OC)c(OC)c2)CC1	inactive: 0.666%	–
CC(=O)c1c(C)[nH]c(C(=O)OCc2nnc(-c3ccc([N+](=O)[O-])cc3)o2)c1C	inactive: 0%	–
CCN(CC)CCN1C(=O)C(=O)/C(=C(/O)c2c(C)[nH]c(C(=O)OC)c2C)C1c1ccc(C)o1 (centres undefined)	inactive: 78.6%	–
CNCC[C@@H](Oc1ccc(C(F)(F)F)cc1)c1ccccc1	–	inconclusive: 56.2 µM [inhibitor, partial curve, poor fit]
Cc1ccc(CN(C)Cc2ccccc2C)o1	inactive: 42.7%	–
O=C(COc1ccc(Cl)cc1)Nc1ccc2oc(=O)ccc2c1	–	inconclusive: 3.98 µM [inhibitor, full curve, poor fit]
CCSc1nnc(NC(=O)c2ccc(C)o2)s1	inactive: -7.12%	–
CC1CCN(C(=O)C2CCCN(c3cnn(C)c(=O)c3)C2)CC1 (centres undefined)	inactive: 1.13%	–
CCn1nc(C)c(CN(CCOC)C(=O)C2COc3ccccc3C2)c1C (centres undefined)	inactive: 12%	–
COc1ccc(NC(=O)CN(C)C(=O)c2cc(-c3ccc(Cl)cc3)nc3ccccc23)cc1	–	inconclusive: 50.1 µM [inhibitor, partial curve, poor fit]
OC(CNCc1ccc(-c2ccccc2)cc1)c1ccccc1 (centres undefined)	–	inconclusive: 31.6 µM [inhibitor, partial curve]
CN(C)c1cccc(C(=O)NC2CCCc3ccccc32)c1 (centres undefined)	–	inconclusive: 35.5 µM [inhibitor, full curve, poor fit]
C[C@]12CCCC3=CC(=O)C=C[C@@]31OC(=O)CC2	–	inconclusive: 50.1 µM [inhibitor, partial curve, poor fit]
CN1CCN(S(=O)(=O)c2ccc(N3CCN(c4ccccc4O)CC3)c([N+](=O)[O-])c2)CC1	–	inconclusive: 31.6 µM [inhibitor, partial curve, poor fit]
CC(=O)c1ccc(NC(=O)CSc2cn[nH]n2)cc1	inactive: -10.9%	–
CN1CCN(c2ccc3nnc(-c4cc(C(=O)N(C)Cc5ccccc5)ccn4)n3n2)CC1	–	inconclusive: 56.2 µM [inhibitor, partial curve, poor fit]

Single entries from above:
Entry for Cc1ccc(CN(C)Cc2ccccc2C)o1 under activity change, negative = inhibition: inactive: 42.7%
Entry for O=C(COc1ccc(Cl)cc1)Nc1ccc2oc(=O)ccc2c1 under Potency: inconclusive: 3.98 µM [inhibitor, full curve, poor fit]
Entry for CN(C)c1cccc(C(=O)NC2CCCc3ccccc32)c1 (centres undefined) under Potency: inconclusive: 35.5 µM [inhibitor, full curve, poor fit]

(next part)

Compound	activity change, negative = inhibition	Potency
O=C(CN1CCN(c2ccc(Cl)cc2)CC1)c1ccccc1	–	inconclusive: 39.8 µM [inhibitor, single point]
CCOc1ccc(-c2cccc(NS(=O)(=O)c3cc(OC)ccc3OC)c2)nn1	inactive: -44.8%	–
CCNC(=O)N1CC(C(=O)NCc2cccc(C)c2)CC(c2ccc(F)c(C)c2)C1 (centres undefined)	–	inconclusive: 50.1 µM [inhibitor, partial curve]
CSc1nc2ccc(NC(=O)c3nn(C)c(=O)c4ccccc34)cc2s1	–	inconclusive: 141 µM [inhibitor, single point]
Cc1ccc(NC(=O)Cc2nc(-c3c[nH]c(C(=O)N4CCCC4)c3)cs2)c(C)c1	–	inactive and inconclusive: 31.6 µM [inhibitor, partial curve, poor fit]
Oc1ccc(CN2CCC(Cc3ccccc3)CC2)c2cccnc12	–	inconclusive: 35.5 µM [inhibitor, partial curve, poor fit]
CC1(O)C(c2ccccc2)=Nc2ccccc21 (centres undefined)	–	inconclusive: 126 µM [inhibitor, single point]
COc1ccc(N2C3=C(CC4=C2CCCC4=O)C(=O)CCC3)cc1	–	inconclusive: 4.47 µM [inhibitor, single point]
CCc1ccc(-c2nc(CN3CCCC(C(=O)O)C3)c(C)o2)cc1 (centres undefined)	–	inconclusive: 31.6 µM [inhibitor, single point]
O=C(N/C(=C\c1ccco1)C(=O)N1CCOCC1)c1ccco1	inactive: 0%	–
O=C(O)CCn1cnc2ccccc2c1=O	–	inconclusive: 35.5 µM [inhibitor, single point]
O=S(=O)(Nc1nc2ccccc2nc1Nc1ccc(F)cc1)c1cccc(Cl)c1	–	inconclusive: 31.6 µM [inhibitor, partial curve, poor fit]
CCCc1cc(=O)oc2cc(C)c(CN3CCCC3)c(O)c12	–	inconclusive: 35.5 µM [inhibitor, full curve, poor fit]
CCOc1ccc(C(=O)Nc2ccc3oc(-c4ccccc4C)nc3c2)cc1	–	inconclusive: 79.4 µM [inhibitor, partial curve, poor fit]
CC(NC(=O)CCC(=O)NCCc1ccc(Cl)cc1)C12CC3CC(CC(C3)C1)C2 (centres undefined)	–	inconclusive: 141 µM [inhibitor, partial curve, poor fit]
Cc1ccc2nc(N3CCN(C)CC3)c(C=O)c(=O)n2c1	–	inconclusive: 141 µM [inhibitor, single point]
O=C(CN1C(=O)NC2(CCCCC2)C1=O)Nc1ccc(Cl)cc1	–	inconclusive: 22.4 µM [inhibitor, partial curve]
O=C(NC1CCN(Cc2ccccc2)CC1)C1CCN(S(=O)(=O)c2ccc(Cl)cc2)CC1	–	inconclusive: 79.4 µM [inhibitor, partial curve, poor fit]
COc1cc(N/N=C/c2ccc(N(C)C)cc2)ncn1	inactive: 13.7%	–
Cc1ccc([C@H]2C(C(=O)O)=C[C@@H](CC3CCCC3)N2S(=O)(=O)c2ccc(C)cc2)cc1	–	active: 39.8 µM
CCCCOc1ccc(C(=O)N2CCCC2C(=O)O)cc1 (centres undefined)	–	inconclusive: 141 µM [inhibitor, single point]
CCNC(=O)N[C@H]1[C@H](O)[C@@H](N2CCCCC2)[C@@H]2OC[C@H]1O2	–	inconclusive: 39.8 µM [inhibitor, full curve, poor fit]

Source: PubChem BioAssay AID1671190 (National Center for Advancing Translational Sciences (NCATS), 2021)
